Source: patent US20090264415A2 (priority 2004, published 2009)
For at least one compound, name, drawing or mass did not settle the structure.

Test system: phosphodiesterase-4 (PDE-4) extract from U937 cells
Assay: Phosphodiesterase-4 inhibiting activity (isotopic two-step method)
Type: biochemical

SMILES | IC50 (1.01 μM [3H]cAMP+cAMP) | PDE-4 (% inhibition) (@ 10 μM)
COc1ccc(-c2ccc3nc(Nc4ccc(C)cc4)nc(N4CCN(C(=O)Nc5cccc(C)c5)CC4)c3n2)cc1OC [Example 91, 2-(p-tolylamino)-4-[(N-3-methylphenylcarbamoyl)-piperazin-1-yl]-6-(3,4-dimethoxy-phenyl)-pyrido[3,2-d]pyrimidine] | 10 µM | 
Nc1nc(N2CCN(C(=O)NCc3ccc(Cl)cc3)CC2)c2nc(-c3ccc(F)cc3)ccc2n1 [Example 189, 2-amino-4-[(N-4-chloro-benzylcarbamoyl)-piperazin-1-yl]-6-(4-fluorophenyl)-pyrido[3,2-d]pyrimidine] |  | 32% @ 10 μM
